Test results from patent US20240270845A1 (ZELARION MALTA, published 2024).
No constants are given. Whether binding was seen depends on the method and setting. Some binding calls cover weakened binding; strength is not graded here. Where a sequence is shown, tags or fusion partners need not be part of it.

T1: Recombinant truncated human CD2 (human, UniProt P06729 25-209, limits assumed)
T1 construct: Bought; also called LFA2
T1 sequence (looked up): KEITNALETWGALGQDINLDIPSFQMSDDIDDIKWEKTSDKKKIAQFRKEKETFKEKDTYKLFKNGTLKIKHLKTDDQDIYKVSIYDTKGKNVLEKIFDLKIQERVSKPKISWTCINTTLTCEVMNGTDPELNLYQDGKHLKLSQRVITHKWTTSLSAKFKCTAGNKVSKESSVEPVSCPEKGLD


The binders below were run against T1, Recombinant truncated human CD2 (assay: SPR (Biacore T200), IgG immobilised, CD2 injected).

Binder	binding
Siplizumab (humanized anti-CD2 IgG1κ) (antibody, V domains shown, also called MEDI-507; anti-CD2 Ab1) VH: QVQLVQSGAEVQRPGASVKVSCKASGYIFTEYYMYWVRQAPGQGLELVGRIDPEDGSIDYVEKFKKKVTLTADTSSSTAYMELSSLTSDDTAVYYCARGKFNYRFAYWGQGTLVTVSS VL: DVVMTQSPPSLLVTLGQPASISCRSSQSLLHSSGNTYLNWLLQRPGQSPQPLIYLVSKLESGVPDRFSGSGSGTDFTLKISGVEAEDVGVYYCMQFTHYPYTFGQGTKLEIK	binds
CD2-binding molecule 1 (a deglycosylated CD2-binding molecule) (antibody, V domains shown, Fc N-glycan removed with EndoS2 (GlycINATOR), produced with GlycINATOR (EndoS2)) VH: QVQLVQSGAEVQRPGASVKVSCKASGYIFTEYYMYWVRQAPGQGLELVGRIDPEDGSIDYVEKFKKKVTLTADTSSSTAYMELSSLTSDDTAVYYCARGKFNYRFAYWGQGTLVTVSS VL: DVVMTQSPPSLLVTLGQPASISCRSSQSLLHSSGNTYLNWLLQRPGQSPQPLIYLVSKLESGVPDRFSGSGSGTDFTLKISGVEAEDVGVYYCMQFTHYPYTFGQGTKLEIK	binds
CD2-binding molecule 4 (FcS anti-CD2 IgG4) (antibody, V domains shown, Standard IgG4 framework with S228P, L235E, P329G; made in CHO-K1 cells) VH: QVQLVQSGAEVQRPGASVKVSCKASGYIFTEYYMYWVRQAPGQGLELVGRIDPEDGSIDYVEKFKKKVTLTADTSSSTAYMELSSLTSDDTAVYYCARGKFNYRFAYWGQGTLVTVSS VL: DVVMTQSPPSLLVTLGQPASISCRSSQSLLHSSGNTYLNWLLQRPGQSPQPLIYLVSKLESGVPDRFSGSGSGTDFTLKISGVEAEDVGVYYCMQFTHYPYTFGQGTKLEIK	binds

Other lines, results leading:

binding	Binder
binds	CD2-binding molecule 3 (FcS anti-CD2 IgG2) (antibody, V domains shown, Standard IgG2 framework with V234A, G237A, P238S, H268A, V309L, A330S, P331S; made in CHO-K1 cells) VH: QVQLVQSGAEVQRPGASVKVSCKASGYIFTEYYMYWVRQAPGQGLELVGRIDPEDGSIDYVEKFKKKVTLTADTSSSTAYMELSSLTSDDTAVYYCARGKFNYRFAYWGQGTLVTVSS VL: DVVMTQSPPSLLVTLGQPASISCRSSQSLLHSSGNTYLNWLLQRPGQSPQPLIYLVSKLESGVPDRFSGSGSGTDFTLKISGVEAEDVGVYYCMQFTHYPYTFGQGTKLEIK
binds	CD2-binding molecule 2 (Fc-silent (FcS) anti-CD2 IgG1) (antibody, V domains shown, IgG1 with LALA-PG mutations at equivalent sites in siplizumab; made in CHO-K1 cells; also called Fc-silent Siplizumab) VH: QVQLVQSGAEVQRPGASVKVSCKASGYIFTEYYMYWVRQAPGQGLELVGRIDPEDGSIDYVEKFKKKVTLTADTSSSTAYMELSSLTSDDTAVYYCARGKFNYRFAYWGQGTLVTVSS VL: DVVMTQSPPSLLVTLGQPASISCRSSQSLLHSSGNTYLNWLLQRPGQSPQPLIYLVSKLESGVPDRFSGSGSGTDFTLKISGVEAEDVGVYYCMQFTHYPYTFGQGTKLEIK
